These are yes or no findings as the source states them, for the method shown. Binding seen in cells or lysates may run through a third protein. Some binding calls cover weakened binding; strength is not graded here.
What was measured:
[1] = biological target: transient receptor potential M4 (TRPM4), endogenous, in lysate of injured tissue (rat) (UniProt Q9ESQ5); experiment: co-immunoprecipitation from injured-tissue lysate with anti-SUR1 antibody, Western blot for TRPM4
[2] = biological target: transient receptor potential M4 (TRPM4), endogenous, in lysate of injured tissue (rat) (UniProt Q9ESQ5); experiment: co-immunoprecipitation with SUR1 antibody, Western blot for TRPM4 (figure legend)

Amino acid sequences for entries named in this document (tags omitted).
UniProt Q9ESQ5: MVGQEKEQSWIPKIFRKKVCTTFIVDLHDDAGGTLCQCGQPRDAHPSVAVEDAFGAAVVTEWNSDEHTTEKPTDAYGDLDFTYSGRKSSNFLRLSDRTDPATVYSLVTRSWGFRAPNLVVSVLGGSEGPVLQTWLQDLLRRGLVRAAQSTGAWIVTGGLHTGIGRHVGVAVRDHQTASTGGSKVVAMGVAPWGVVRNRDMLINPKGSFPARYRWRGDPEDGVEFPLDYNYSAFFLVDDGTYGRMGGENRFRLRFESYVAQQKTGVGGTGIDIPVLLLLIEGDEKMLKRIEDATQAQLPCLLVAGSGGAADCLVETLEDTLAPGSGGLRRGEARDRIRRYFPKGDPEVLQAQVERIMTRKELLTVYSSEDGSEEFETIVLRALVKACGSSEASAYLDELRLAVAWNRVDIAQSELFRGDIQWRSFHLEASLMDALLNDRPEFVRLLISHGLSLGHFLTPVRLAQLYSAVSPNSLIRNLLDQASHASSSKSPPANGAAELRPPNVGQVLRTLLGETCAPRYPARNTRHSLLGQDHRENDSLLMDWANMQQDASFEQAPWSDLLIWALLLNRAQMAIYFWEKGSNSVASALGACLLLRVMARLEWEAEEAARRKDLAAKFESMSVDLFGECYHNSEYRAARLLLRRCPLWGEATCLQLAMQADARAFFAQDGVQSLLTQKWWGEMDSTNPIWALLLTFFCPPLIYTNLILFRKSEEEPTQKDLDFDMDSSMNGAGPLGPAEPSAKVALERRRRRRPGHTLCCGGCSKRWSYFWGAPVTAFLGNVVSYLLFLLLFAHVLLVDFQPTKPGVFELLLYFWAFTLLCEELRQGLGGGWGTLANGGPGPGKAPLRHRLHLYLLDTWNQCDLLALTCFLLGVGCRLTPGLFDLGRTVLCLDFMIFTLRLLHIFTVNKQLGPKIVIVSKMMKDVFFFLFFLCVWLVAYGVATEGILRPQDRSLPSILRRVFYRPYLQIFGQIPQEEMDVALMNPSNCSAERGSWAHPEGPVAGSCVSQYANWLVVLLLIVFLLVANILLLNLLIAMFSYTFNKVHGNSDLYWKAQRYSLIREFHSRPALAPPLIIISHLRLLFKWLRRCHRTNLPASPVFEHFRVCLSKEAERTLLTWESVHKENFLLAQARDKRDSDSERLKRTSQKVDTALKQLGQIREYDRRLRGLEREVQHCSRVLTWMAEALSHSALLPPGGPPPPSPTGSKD
UniProt Q09429: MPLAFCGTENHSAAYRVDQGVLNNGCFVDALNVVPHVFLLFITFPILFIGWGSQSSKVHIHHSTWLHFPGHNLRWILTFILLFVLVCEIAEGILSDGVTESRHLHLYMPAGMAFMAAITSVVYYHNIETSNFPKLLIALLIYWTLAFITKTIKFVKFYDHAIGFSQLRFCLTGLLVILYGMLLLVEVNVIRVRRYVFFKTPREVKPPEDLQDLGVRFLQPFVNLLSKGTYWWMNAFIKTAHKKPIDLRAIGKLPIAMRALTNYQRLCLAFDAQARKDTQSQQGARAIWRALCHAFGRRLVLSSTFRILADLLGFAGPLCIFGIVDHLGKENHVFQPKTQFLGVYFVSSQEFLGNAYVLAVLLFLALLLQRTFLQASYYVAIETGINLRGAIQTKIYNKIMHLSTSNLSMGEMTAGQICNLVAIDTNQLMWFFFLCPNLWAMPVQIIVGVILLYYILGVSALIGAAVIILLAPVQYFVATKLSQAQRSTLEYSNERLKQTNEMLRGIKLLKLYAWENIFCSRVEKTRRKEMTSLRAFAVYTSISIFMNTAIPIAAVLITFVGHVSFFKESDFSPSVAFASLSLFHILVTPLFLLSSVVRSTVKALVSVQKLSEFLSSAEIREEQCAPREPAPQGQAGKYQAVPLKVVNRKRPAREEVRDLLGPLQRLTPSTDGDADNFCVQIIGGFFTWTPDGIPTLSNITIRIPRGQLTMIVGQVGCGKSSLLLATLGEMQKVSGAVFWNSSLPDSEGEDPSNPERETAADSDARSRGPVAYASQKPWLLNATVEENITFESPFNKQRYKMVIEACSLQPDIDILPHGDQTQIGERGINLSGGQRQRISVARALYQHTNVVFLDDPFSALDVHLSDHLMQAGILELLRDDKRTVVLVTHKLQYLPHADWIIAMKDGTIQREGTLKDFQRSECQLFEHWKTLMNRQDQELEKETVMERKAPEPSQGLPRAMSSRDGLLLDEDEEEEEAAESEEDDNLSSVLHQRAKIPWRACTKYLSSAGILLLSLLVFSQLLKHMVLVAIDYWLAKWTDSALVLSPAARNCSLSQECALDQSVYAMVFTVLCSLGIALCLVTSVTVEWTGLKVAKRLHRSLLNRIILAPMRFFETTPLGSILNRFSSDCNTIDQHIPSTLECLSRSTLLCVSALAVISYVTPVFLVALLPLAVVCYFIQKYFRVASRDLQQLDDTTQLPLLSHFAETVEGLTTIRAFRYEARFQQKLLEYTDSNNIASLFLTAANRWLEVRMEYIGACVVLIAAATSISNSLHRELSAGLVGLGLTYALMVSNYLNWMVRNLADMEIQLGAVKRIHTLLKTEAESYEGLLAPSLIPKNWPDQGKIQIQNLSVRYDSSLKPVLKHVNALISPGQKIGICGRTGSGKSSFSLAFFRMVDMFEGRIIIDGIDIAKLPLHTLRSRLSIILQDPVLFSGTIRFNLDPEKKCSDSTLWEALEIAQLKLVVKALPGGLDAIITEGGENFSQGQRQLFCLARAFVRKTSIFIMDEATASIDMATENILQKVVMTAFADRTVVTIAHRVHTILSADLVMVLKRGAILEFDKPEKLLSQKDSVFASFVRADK

## sulfonylurea receptor 1 (SUR1), endogenous, in lysate of injured tissue (from UniProt Q09429 1-1582)
[1]
  binding: binds
[2]
  binding: binds

— patent US20100311639A1
